Reference: PubChem BioAssay AID652248 (Drosophila RNAi Screening Center, 2013)
Purpose: 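Kinase and phosphatase regulators of cell lengthening and shape variety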 (primary screen). Cell system: cultured Drosophila hemocytes. Reagent: long dsRNA against Drosophila genes. Measured: 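Automated microscopy of stained actin, tubulin and nuclei; single-cell shape measures assigned to five reference shape types, giving a score per dsRNA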. Scale: elongated score: higher = more elongated bipolar cells. Rule for the call: 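Hits show a significant increase of elongated cells; higher rank given where elongated cells rose as other shape types fell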.
The whole screen tested 863 reagents; shown is a part drawn at random. 32 of them (3.7%) were called active. 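Calls also used reproducibility and a similarity ranking whose scores are not deposited; many active genes show only modest elongated scores.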 Entries without a mark were called inactive. Further read-outs or replicates are left out here. Not stated in the record: the amount of reagent, the time to read-out.

Lrrk [DRSC15816] gave elongated score, rep 1 = 0.8; elongated score, rep 2 = 1.14. Knock-down of Lrrk [DRSC21971] came out at: elongated score, rep 1 = -0.36. Knock-down of Lrrk [DRSC26140] came out at: elongated score, rep 1 = -0.47. After knock-down of Pak3 [DRSC15017], the record shows elongated score, rep 1 = -0.53. After knock-down of Pak3 [DRSC26832], the record shows elongated score, rep 1 = -0.53. With knock-down of IP3K2 [DRSC19747], the screen gave elongated score, rep 1 = 1.48.

Knock-down of IP3K2 [DRSC27191] resulted in: elongated score, rep 1 = 1.76. Silencing of SRPK [DRSC07090] came out at: elongated score, rep 1 = -0.53. After knock-down of SRPK [DRSC28162], the screen gave elongated score, rep 1 = -0.31. Against Ptpa [DRSC00776], the entry reads elongated score, rep 1 = -0.16. Against Ptpa [DRSC28747] the deposit lists elongated score, rep 1 = 1.9. For Sac1 [DRSC08622], the entry reads elongated score, rep 1 = 0.13.

For Sac1 [DRSC26886], the values are elongated score, rep 1 = -0.53. CG5757 [DRSC06951] gave elongated score, rep 1 = 0.26. After knock-down of Pvf1 [DRSC20024], the screen gave elongated score, rep 1 = 0.63. Knock-down of BubR1 [DRSC04838] resulted in: elongated score, rep 1 = 0.07. Silencing of Aduk [DRSC16451] resulted in: elongated score, rep 1 = -0.53. For Aduk [DRSC29838], the values are elongated score, rep 1 = 0.46.

For CG17598 [DRSC20636] the deposit lists elongated score, rep 1 = -0.53. For sev [DRSC20372] the deposit lists elongated score, rep 1 = 0.14. With knock-down of Alp1 [DRSC11781], the screen gave elongated score, rep 1 = -0.38. Mtmr6 [DRSC04046] scored elongated score, rep 1 = -0.44. With knock-down of Mtmr6 [DRSC26569], the record shows elongated score, rep 1 = 1.48. Depletion of Pp1-87B [DRSC16794] resulted in: elongated score, rep 1 = 1.1.

Depletion of Pp1-87B [DRSC23299] resulted in: elongated score, rep 1 = -0.53. Depletion of Pp1-87B [DRSC27290] resulted in: elongated score, rep 1 = -0.53. Against CG10459 [DRSC05991] the deposit lists elongated score, rep 1 = -0.53. CG10459 [DRSC22092] gave elongated score, rep 1 = 0.02. Silencing of CycD [DRSC20233] resulted in: elongated score, rep 1 = -0.11. With knock-down of CycD [DRSC25031] the results were elongated score, rep 1 = -0.53.

hpo [DRSC06065] scored elongated score, rep 1 = -0.53. NiPp1 [DRSC07307] gave elongated score, rep 1 = 0.72. With knock-down of CG17124 [DRSC02580], the record shows elongated score, rep 1 = -0.53. With knock-down of CG17124 [DRSC29139], the record shows elongated score, rep 1 = 2.51. Silencing of Wsck [DRSC13682] came out at: elongated score, rep 1 = 0.76. After knock-down of Wsck [DRSC28781], the record shows elongated score, rep 1 = 2.89.

Against Pkcdelta [DRSC19356], the entry reads elongated score, rep 1 = -0.53. Knock-down of put [DRSC17039] resulted in: elongated score, rep 1 = 1.05. CG42327 [DRSC14937] showed elongated score, rep 1 = -0.53. For CG42327 [DRSC23337], the values are elongated score, rep 1 = -0.22. For CG42327 [DRSC28248], the entry reads elongated score, rep 1 = 0.21. With knock-down of Fcp1 [DRSC04121] the results were elongated score, rep 1 = 0.64.

Fcp1 [DRSC26715] gave elongated score, rep 1 = 3.81. Against S6k [DRSC11276], the entry reads elongated score, rep 1 = 0.53. Depletion of CkIIbeta2 [DRSC07361] came out at: elongated score, rep 1 = -0.16.

7 of these entries, reformatted:
| gene | DRSC id | elongated score, rep 1 | elongated score, rep 2 |
| --- | --- | --- | --- |
| Pkcdelta | DRSC19356 | -0.53 | – |
| put | DRSC17039 | 1.05 | – |
| CG42327 | DRSC14937 | -0.53 | – |
| CG42327 | DRSC23337 | -0.22 | – |
| CG42327 | DRSC28248 | 0.21 | – |
| Fcp1 | DRSC04121 | 0.64 | – |
| Fcp1 | DRSC26715 | 3.81 | – |
